Assay [1] concerns the target CPNA1-HA (AtCpn60α1 with an HA tag at the C-terminus, from 35Spro:CPNA1-HA) (Arabidopsis thaliana) (UniProt P21238). In words: affinity purification with mass spectrometry; anti-HA microbeads (μMACS HA isolation kit) on lysates of chloroplasts from 7 DAG seedlings of 35Spro:CPNA2-HA or 35Spro:CPNA1-HA plants; 50 mM Tris-HCl pH 8.0, 10 mM ADP, 150 mM NaCl, 2.5 h at 4°C; washes with Triton X-100, deoxycholate and 5 mM ADP; SDS-PAGE and LC-MS/MS; two replicates; wild-type seedlings as control.

Amino acid sequences for entries named in this document (tags omitted). A change or cut given only in a name is not applied to a line headed by its entry. Residues count along the entry.
UniProt P21238, residues 47-586: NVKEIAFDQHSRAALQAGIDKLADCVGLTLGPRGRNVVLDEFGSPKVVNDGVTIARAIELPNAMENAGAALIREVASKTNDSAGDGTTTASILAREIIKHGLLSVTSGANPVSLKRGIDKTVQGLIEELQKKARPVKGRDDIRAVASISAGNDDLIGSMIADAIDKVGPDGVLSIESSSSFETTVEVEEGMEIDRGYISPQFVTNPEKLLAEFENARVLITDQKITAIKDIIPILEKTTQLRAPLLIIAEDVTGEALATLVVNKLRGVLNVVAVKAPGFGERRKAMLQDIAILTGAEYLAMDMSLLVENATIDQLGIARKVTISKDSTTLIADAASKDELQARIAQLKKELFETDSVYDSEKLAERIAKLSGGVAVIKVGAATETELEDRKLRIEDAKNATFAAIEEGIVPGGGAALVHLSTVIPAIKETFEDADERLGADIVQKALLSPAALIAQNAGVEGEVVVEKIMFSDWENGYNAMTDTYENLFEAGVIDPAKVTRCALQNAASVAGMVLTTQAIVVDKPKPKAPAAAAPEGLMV
UniProt Q56XV8, residues 33-575: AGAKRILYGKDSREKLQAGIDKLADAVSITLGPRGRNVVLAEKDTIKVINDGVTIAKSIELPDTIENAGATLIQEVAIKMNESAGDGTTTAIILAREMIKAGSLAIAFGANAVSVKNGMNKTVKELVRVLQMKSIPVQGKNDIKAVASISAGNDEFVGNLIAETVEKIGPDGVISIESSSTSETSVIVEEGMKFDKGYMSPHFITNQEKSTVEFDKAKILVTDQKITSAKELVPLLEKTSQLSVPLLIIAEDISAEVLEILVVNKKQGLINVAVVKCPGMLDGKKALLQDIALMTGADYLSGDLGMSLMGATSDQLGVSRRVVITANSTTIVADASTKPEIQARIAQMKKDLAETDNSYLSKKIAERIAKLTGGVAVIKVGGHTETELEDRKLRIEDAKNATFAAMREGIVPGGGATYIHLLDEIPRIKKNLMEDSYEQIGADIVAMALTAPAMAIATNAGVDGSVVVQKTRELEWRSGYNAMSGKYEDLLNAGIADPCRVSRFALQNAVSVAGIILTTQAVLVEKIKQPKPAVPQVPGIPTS
UniProt Q9LJE4: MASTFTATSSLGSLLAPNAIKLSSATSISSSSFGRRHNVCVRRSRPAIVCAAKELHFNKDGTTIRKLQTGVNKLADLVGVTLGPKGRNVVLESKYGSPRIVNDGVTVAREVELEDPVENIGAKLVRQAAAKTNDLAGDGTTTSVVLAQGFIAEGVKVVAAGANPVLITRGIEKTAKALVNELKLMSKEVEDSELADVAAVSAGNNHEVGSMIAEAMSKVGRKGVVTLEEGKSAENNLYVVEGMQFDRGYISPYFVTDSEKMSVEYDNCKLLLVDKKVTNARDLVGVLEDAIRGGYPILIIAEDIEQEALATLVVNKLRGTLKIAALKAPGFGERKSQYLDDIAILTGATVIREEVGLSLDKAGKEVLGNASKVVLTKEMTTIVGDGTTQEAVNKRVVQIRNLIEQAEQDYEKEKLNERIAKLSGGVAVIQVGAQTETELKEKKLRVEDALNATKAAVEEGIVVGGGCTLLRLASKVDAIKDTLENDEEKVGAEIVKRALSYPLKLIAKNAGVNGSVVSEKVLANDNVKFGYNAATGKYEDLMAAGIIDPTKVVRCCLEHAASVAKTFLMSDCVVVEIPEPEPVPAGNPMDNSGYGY
UniProt C0Z361: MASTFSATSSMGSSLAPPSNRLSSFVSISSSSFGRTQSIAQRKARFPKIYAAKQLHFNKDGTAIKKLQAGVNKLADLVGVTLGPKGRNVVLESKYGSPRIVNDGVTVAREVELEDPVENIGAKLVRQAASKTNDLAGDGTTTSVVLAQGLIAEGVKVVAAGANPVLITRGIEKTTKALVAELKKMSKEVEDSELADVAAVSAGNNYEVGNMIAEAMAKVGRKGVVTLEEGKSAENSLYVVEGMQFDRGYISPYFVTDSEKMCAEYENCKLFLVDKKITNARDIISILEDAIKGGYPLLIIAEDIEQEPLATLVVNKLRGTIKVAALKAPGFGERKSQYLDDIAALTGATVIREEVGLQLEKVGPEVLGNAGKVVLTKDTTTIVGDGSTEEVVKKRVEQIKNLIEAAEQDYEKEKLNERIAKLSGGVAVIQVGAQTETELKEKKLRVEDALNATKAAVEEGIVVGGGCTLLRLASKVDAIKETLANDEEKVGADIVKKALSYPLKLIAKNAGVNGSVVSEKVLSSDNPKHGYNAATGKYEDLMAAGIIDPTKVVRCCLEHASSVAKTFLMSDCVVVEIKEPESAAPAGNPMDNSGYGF
UniProt P21240: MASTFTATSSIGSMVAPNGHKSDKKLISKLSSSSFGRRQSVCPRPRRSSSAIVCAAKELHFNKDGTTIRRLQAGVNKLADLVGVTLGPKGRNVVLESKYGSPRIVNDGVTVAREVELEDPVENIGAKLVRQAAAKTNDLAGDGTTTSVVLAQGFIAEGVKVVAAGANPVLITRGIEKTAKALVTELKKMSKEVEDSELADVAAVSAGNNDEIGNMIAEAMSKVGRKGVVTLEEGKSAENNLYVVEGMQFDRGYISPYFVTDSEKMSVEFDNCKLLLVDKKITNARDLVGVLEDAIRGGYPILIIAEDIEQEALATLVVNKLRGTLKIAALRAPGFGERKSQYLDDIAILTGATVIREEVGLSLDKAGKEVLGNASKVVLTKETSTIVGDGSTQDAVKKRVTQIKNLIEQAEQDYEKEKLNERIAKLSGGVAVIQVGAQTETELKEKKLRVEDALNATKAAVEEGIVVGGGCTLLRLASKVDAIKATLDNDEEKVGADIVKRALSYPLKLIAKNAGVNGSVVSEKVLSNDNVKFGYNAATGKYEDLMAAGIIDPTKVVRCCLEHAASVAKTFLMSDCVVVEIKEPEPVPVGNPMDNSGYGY
UniProt Q9C667: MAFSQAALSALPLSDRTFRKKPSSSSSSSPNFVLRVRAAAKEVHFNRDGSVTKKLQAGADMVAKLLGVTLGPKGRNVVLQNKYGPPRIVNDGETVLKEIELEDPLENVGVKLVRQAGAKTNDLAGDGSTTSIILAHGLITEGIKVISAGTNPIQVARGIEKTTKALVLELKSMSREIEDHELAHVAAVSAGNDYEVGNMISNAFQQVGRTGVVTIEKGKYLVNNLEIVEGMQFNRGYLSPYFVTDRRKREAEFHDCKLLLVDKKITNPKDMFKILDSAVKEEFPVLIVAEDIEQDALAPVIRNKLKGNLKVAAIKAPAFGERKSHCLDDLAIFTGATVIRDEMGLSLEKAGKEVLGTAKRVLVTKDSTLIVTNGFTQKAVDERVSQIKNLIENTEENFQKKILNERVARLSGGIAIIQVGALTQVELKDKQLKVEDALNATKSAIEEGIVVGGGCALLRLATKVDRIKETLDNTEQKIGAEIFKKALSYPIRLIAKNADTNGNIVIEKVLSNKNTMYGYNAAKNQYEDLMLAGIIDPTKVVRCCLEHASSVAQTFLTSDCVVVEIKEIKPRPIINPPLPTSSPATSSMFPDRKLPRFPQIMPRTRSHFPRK

In assay [2] the target is CPNA2-HA (AtCpn60α2 with an HA tag at the C-terminus, from 35Spro:CPNA2-HA) (Arabidopsis thaliana) (UniProt Q56XV8). The description is as above.

These are yes or no findings as the source states them, for the method shown. In cells and extracts the contact can be indirect. These calls come from enrichment with a bait or labelling near it, and not all partners need be listed.

Experimental findings from PMC5636168 are described below.

“CPNB2 (AtCpn60β2), endogenous (from UniProt Q9LJE4)”: the binding result in assay [1] and in assay [2] was “binds” in each case.
Consider “CPNB3 (AtCpn60β3), endogenous (from UniProt C0Z361)”, for which, in assay [2], the binding entry was “binds”.
For “CPNB1 (AtCpn60β1), endogenous (from UniProt P21240)”, the binding entry in assay [1] and in assay [2] was “binds” in each case.
For the molecule “CPNA1 (AtCpn60α1), endogenous (from UniProt P21238 47-586)”, the binding result in assay [2] is listed as “binds”.
Consider “CPNB4 (AtCpn60β4), endogenous (from UniProt Q9C667)”, for which, in assay [2], the binding entry is on record as “binds”.

B1: KASI (β-ketoacyl-[acyl carrier protein] synthase I), endogenous (protein, UniProt P52410 47-473)
chain: ASTVSAPKRETDPKKRVVITGMGLVSVFGNDVDAYYEKLLSGESGISLIDRFDASKFPTRFGGQIRGFSSEGYIDGKNERRLDDCLKYCIVAGKKALESANLGGDKLNTIDKRKAGVLVGTGMGGLTVFSEGVQNLIEKGHRRISPFFIPYAITNMGSALLAIDLGLMGPNYSISTACATSNYCFYAAANHIRRGEADMMIAGGTEAAIIPIGLGGFVACRALSQRNDDPQTASRPWDKARDGFVMGEGAGVLVMESLEHAMKRGAPIVAEYLGGAVNCDAHHMTDPRADGLGVSSCIERCLEDAGVSPEEVNYINAHATSTLAGDLAEINAIKKVFKSTSGIKINATKSMIGHCLGAAGGLEAIATVKAINTGWLHPSINQFNPEQAVDFDTVPNEKKQHEVDVAISNSFGFGGHNSVVAFSAFKP
On to B1, for which the binding result in assay [2] is listed as “binds”.
